Data on two molecules can be found in patent US20170226207A1 (Astellas, published 2017).

Changes are numbered by the printed parent chain. Results are given in words; binding and its absence hold for the method and conditions named. A result given as binding can be weak or reduced; the word gives no strength.

In the test the target is monkey Igβ-Flag protein (monkey). In words: antigen ELISA, Igβ-Flag coated on plate. A general note: ELISA stands for enzyme-linked immunosorbent assay.

B1: humanized antibody CL6_40m12_DDW (antibody, human IgG1, kappa, V domains shown)
VH: EVQMVESGGGLVQPGGSLRLSCAVSGFSLSSYSVHWVRQAPGKGLEWVAGIWSGGSIHYTPALSSRFTVSRDDSKNTVYLQMNSLRAEDTAVYYCARYDRYETYAMDYWGQGTLVTVSS
VL: DIQLTQSPSSLSASVGDRVTITCKASQSVDYDGDSYMNWYQQKPGKAPKLLIYAASNLESGVPSRFSGSGSGTDFTLTISSLQPEDFATYYCQQSNEDPLTFGQGTKVEIKR
notes: Humanized anti-human Igβ antibody
In the case of B1, the binding result is “binds”.

B2: humanized antibody CL6_40m16_DDW (antibody, human IgG1, kappa, V domains shown)
VH: B1 VH with M4L, V37F, Q39K, V48L, A49G, F67L, D73I
VL: B1 VL with Q3V
notes: as for B1
As to B2, the binding entry is listed as “binds”.
